Experimental data: publication PMC10403576
No constants are given. Whether binding was seen depends on the method and setting. Binding seen in cells or lysates may run through a third protein. These calls come from enrichment with a bait or labelling near it, and not all partners need be listed.

Protein sequences, listed by entry. Tags and fused reporters are not part of them. Residues count along the entry.
UniProt P09192, residues 2-330: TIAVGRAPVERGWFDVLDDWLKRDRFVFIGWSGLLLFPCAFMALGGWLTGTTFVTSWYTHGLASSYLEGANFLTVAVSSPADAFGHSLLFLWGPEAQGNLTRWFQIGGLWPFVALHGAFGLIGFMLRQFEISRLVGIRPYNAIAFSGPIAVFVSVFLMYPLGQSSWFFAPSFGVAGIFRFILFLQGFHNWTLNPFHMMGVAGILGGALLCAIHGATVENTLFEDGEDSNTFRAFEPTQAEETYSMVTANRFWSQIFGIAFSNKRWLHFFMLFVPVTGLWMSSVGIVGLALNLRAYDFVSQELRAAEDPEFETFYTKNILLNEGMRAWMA

B1: PsaK1 subunit of PSI (protein, UniProt P72712 1-86)
chain: MHSFLLATAVPATLSWSPKVAGVMIACNILAIAFGKLTIKQQNVGTPMPSSNFFGGFGLGAVLGTASFGHILGAGVILGLANMGVL
B2: PsaK2 subunit of PSI (protein, UniProt P74564 1-90)
chain: MFNTALLLAQASPTTAGWSLSVGIIMCLCNVFAFVIGYFAIQKTGKGKDLALPQLASKKTFGLPELLATMSFGHILGAGMVLGLASSGIL
B3: Ycf48 accessory factor (protein, UniProt P73069 29-342)
chain: CSHVPDLAFNPWQEIALETDSTFADIAFTEDPNHGWLVGTKETIFETTDGGDTWEQKLIDLGEEKASFSAVSFSGNEGWITGKPSILLHTTDGGQTWARIPLSEKLPGAPYSIIALGPQTAEMITDLGAIYKTTNGGKNWKALVEGAVGVARTIQRSTDGRYVAVSARGNFYSTWAPGQTEWTPHNRNSSRRLQTMGYGKDGQLWLLARGGQLQFSTDPDAEEWSDVIAPQDKGSWGLLDLSFRTPEEVWVAGASGNLLMSQDGGQTWAKDTGVEDIPANLYRVVFLSPEKGFVLGQDGILLKYNPSTEVAMVP
modifications: lipidation of the Ycf48-Cys29 N-terminal residue
B4: PsaD subunit of PSI (protein, UniProt P19569 1-141)
chain: MTELSGQPPKFGGSTGGLLSKANREEKYAITWTSASEQVFEMPTGGAAIMNEGENLLYLARKEQCLALGTQLRTKFKPKIQDYKIYRVYPSGEVQYLHPADGVFPEKVNEGREAQGTKTRRIGQNPEPVTIKFSGKAPYEV
B5: rubredoxin-like RubA protein (protein, UniProt P73068 1-115)
chain: MSERPPEKTLAELASPNHECRACGYVYIPSQGDQKTSVSPGTPFEALPLNWKCPVCGAPRNYFISTGETDAPSGFAENLNYGFGFNRMSGGKKNLLIFGSLFVIFLFFLSLYGMG
B6: PsaL subunit of PSI (protein, UniProt P37277 1-157)
chain: MAESNQVVQAYNGDPFVGHLSTPISDSAFTRTFIGNLPAYRKGLSPILRGLEVGMAHGYFLIGPWTLLGPLRDSEYQYIGGLIGALALILVATAALSSYGLVTFQGEQGSGDTLQTADGWSQFAAGFFVGGMGGAFVAYFLLENLSVVDGIFRGLFN
B7: PsaF subunit of PSI (protein, UniProt P29256 24-165)
chain: DDFANLTPCSENPAYLAKSKNFLNTTNDPNSGKIRAERYASALCGPEGYPHLIVDGRFTHAGDFLIPSILFLYIAGWIGWVGRSYLIEIRESKNPEMQEVVINVPLAIKKMLGGFLWPLAAVGEYTSGKLVMKDSEIPTSPR

target: His-tagged D2 reaction center subunit of PSII (Synechocystis sp. PCC 6803) (UniProt P09192); assay: affinity purification with mass spectrometry; His-tagged D2 complexes from thylakoid membranes of strain His-D2/ΔCP47 solubilised with 1.5% DM, Protino Ni-NTA agarose at 10 °C, then 10–30% sucrose gradient; the RCII/PSI fraction analysed by SDS-PAGE, immunoblotting and mass spectrometry

binding, binds:
B1
B2
B3
B4
B5
B6
B7
